Assay results reported in article PMC11879086, “Identification and characterization of a human MORC2 DNA binding region that is required for gene silencing” (Nucleic Acids Research, 2024).
pKd: −log10 of the molar value. Construct, isoform or probe ends are uncertain for at least one entry. For part of these data: The comparison behind a weaker result is the experiment's own reference, which may not be listed here. For part of these data: Protein sequences can lack the tags named with them. For part of these data: At least one verdict rests on a figure or table, not on a statement of the authors.

Columns and labels:
[1] = target: T1, MORC2 dephosphorylated (wild-type) (Homo sapiens) (UniProt Q9Y6X9); assay: fluorescence anisotropy; conditions: FA/EMSA: 50 mM NaCl, 3 mM MgCl2, 20 mM Na-HEPES pH 7.4, 1 mM TCEP, 10% glycerol, 0.025 mM ZnCl2, 50 ug/ml BSA, room temperature, recombinant protein, residues 1-1032, protein details: tag removed by TEV, label: 5'-6-FAM; for binding result: value not in material
T1 sequence (looked up): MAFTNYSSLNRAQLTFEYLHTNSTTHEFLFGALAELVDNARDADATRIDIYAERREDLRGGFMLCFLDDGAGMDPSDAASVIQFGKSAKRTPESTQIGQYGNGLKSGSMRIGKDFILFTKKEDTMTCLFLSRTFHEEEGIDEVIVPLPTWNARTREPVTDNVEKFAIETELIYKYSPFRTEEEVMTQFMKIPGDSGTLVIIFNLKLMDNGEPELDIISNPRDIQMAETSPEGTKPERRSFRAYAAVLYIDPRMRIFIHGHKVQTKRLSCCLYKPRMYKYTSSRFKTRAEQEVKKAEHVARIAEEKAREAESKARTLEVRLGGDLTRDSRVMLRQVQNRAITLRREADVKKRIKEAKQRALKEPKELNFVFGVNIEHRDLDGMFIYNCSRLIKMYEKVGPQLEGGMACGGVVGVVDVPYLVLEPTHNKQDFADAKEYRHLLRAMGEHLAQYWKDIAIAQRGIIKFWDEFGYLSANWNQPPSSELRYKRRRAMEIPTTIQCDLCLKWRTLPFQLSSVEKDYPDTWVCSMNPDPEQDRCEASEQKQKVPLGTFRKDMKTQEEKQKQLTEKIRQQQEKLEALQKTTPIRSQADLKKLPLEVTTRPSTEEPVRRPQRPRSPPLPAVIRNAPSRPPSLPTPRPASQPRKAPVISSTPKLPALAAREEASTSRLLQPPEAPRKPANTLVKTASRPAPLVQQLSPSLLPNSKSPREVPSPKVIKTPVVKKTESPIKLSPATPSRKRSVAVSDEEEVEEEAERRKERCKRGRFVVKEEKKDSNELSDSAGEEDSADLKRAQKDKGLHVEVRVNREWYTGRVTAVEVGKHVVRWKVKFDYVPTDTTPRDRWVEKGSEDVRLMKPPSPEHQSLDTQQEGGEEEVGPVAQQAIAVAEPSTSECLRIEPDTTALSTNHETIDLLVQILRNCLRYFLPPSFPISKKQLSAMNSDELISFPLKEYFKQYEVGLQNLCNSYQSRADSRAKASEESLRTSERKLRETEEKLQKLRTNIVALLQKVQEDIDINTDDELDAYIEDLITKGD

[2] = target: MORC2 phosphorylated (wild-type) (Homo sapiens) (UniProt Q9Y6X9); assay: fluorescence anisotropy; conditions: apo; FA/EMSA: 50 mM NaCl, 3 mM MgCl2, 20 mM Na-HEPES pH 7.4, 1 mM TCEP, 10% glycerol, 0.025 mM ZnCl2, 50 ug/ml BSA, room temperature; recombinant protein; residues 1-1032; protein details: tag removed by TEV; label: 5'-6-FAM

| Sequence | pKd ([1]; 1 mM ADP) | pKd ([1]; 1 mM AMP-PNP) | pKd ([1]; 1 mM ATP) | binding result ([1]; 1 mM ATPgS, largest reduction) | pKd [2] | binding result ([1]; apo) |
| --- | --- | --- | --- | --- | --- | --- |
| ATAGGGTCCATCAGAATTCGGATGAACTCGGTGTG (double strand) [Random 35mer dsDNA] | 7.44 | 7.52 | 7.07 | binds more weakly | 6.55 |  |
| TGTGTGCGCACCGTGCGCGAGCCGAAGCAGGGCGA (double strand) [High GC 35mer dsDNA] |  |  |  |  |  | binds |
